We go through four molecules from patent US20150218255A1 (US Dept. of Health and Human Services, published 2015).

Assay [1] deals with DENV envelope domain III, serotype 2 (antigen of the Biacore assays) (Dengue virus serotype 2 (consensus sequence)) (UniProt P14337). In words: SPR (Biacore). In general terms: Surface plasmon resonance follows binding to a sensor surface in real time, without labels.
Assay [2] has the same target. The assay can be described thus: summary of the examples (SPR).

No constants are given. Whether binding was seen depends on the method and setting. Some entries that bind do so weakly or less than the wild type.

B1: human anti-dengue virus antibody scFv m360 (scFv)
scFv: QVTLKESGPTLVKRTQTLTLTCTFFGFSLSTSGMRVSWIRQPPGKALEWIARIDWDDDKFYSISLKSRLTISKDTSKNQVVLTMTNMDPVDTATYYCARTPYNWNDGPRGAFDIWGQGTMVTVSSEGGGSGGGASSGGGSQSVLTQPPSVSAAPGQKVTIPCSGSYSNIRNNYVSWYQQLPGTAPKLLIYDDNKRPSGIPDRFSGSKSGTLATLVITGLQSGDEADYYCGTWDSSLSGVVFGGGTKLTVLG
notes: also called antibody m360
As for B1, in assay [1], the binding entry is “binds”.

B2: human anti-dengue virus antibody scFv m366 (scFv)
scFv: QLQLQESGGGLVQPGGSLRLSCAASGFTFSSYSMNWVRQAPGKRLEWVSSISGSSSYIYYADSVKGRFTISRDNAKNSLYLQMDSLRAEDTAVYYCARYAAGIWTFDIWGQGTTVTVSSGGGGSGGGASGGGGSSYELTQPPSVSVAPGKTASISCGGDNIGRKSVHWFQQKPGQAPVLVLYDDSDRPSGIPARFSGSNSGNTATLTISRVEAGDEADYYCQVWARSSDHPNWVFGGGTKLTVLG
notes: also called antibody m366
Consider B2, for which the binding entry in assay [2] and in assay [1] was “binds” each time.

B3: human anti-dengue virus antibody scFv m366.6 (scFv)
scFv: QLQLQESGGGLVQPGGSLRLSCAASGFTFSSHSMNWIRQAPGKRLEWVSSISSSSSYIYYADSVRGRFTISRDNAKNSLYLQMDSLRAEDTAVYYCARYMAGIWTFDIWGQGTMVTVSSGGGGSGGGASGGGGSSYELTQPPSVSVAPGKTASISCGGDNIGRKSVHWFQQKPGQAPVLVLYDDSDRPSGIPARFSGSNSGNTATLTISGVEAGDEADYYCQVWARSSDLPNWVFGGGTKLTVLG
notes: also called antibody m366.6
Consider B3, for which the binding result in assay [1] is recorded as “binds”.

B4: human anti-dengue virus antibody scFv m360.6 (scFv)
scFv: KVTLKESGPTLVKPRQTLTLTCTFSGFSLSTSGMRVSWVRQPPGKALEWIARIDWDDDKFYSTSLKTRLTISKDTFKNQVVLTMTNMDPVDTAMYYCVRTPYNWNDGPRGALDIWGQGTMVTVSSGGDRSDGGASGGGGSQSMLTQSPSVSAAPGQNVTISCSGDYPNIRNNYVSWYQQLPGAAPKLLIYDNNKRPSGIPDRFSGSKSGTSATLDITGLQTGDEADYYCGAWDSRLSAVVFGGGTKLTVLG
notes: also called antibody m360.6
B4: the binding result in assay [1] is listed as “binds”.
